By UniProt entry, the sequences of proteins in these tests, tags left out.
UniProt P18054, whole entry, looked up: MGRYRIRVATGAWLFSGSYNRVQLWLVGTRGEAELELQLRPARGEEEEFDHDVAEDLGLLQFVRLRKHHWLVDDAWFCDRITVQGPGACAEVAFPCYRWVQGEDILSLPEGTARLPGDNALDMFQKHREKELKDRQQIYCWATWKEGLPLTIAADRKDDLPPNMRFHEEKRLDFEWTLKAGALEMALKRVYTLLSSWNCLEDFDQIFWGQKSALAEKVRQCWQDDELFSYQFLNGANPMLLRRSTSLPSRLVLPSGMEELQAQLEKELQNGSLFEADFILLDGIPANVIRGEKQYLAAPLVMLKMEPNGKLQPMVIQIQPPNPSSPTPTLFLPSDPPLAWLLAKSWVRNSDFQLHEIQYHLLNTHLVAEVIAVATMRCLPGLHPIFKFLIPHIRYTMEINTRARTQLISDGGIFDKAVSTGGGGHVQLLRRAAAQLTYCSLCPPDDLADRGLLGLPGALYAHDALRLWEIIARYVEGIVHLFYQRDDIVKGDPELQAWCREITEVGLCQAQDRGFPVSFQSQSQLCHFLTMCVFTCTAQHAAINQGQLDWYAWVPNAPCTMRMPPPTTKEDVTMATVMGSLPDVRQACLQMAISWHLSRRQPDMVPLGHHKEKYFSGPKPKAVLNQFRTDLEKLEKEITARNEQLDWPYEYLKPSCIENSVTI

Several values for one entry are separate records, joined by “and”; a condition that tells them apart may be missing. Equal entries are not always repeated. The campaign covered roughly 580,000 compounds. About 6,100 (1.1%) were called active. The shares of active, inactive and inconclusive entries below differ from those in the screen. Calls follow the shape of the dose curve; as a rule, active = well fitted inhibition curve with a large enough effect; inconclusive = small, poorly fitted or top-dose-only effect, or another doubt; inactive = no such curve, though single readings can be large or run the other way. Where the call is inconclusive, the potency comes from a doubtful curve fit.
What follows are compounds tested against Polyunsaturated fatty acid lipoxygenase ALOX12 (Homo sapiens) (UniProt P18054) (assay: Primary qHTS assay for inhibitors of human arachidonate 12S-lipoxygenase (ALOX12): Round 2). Settings: purified 12hLO, xylenol orange hydroperoxide absorbance; activity change, negative = inhibition: at 108 µM (top of the series) unless noted.
Method in brief: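 Hydroperoxide product was detected by ferrous iron/xylenol orange as the 573 to 405 nm absorbance ratio. Arachidonic acid at 40 uM (final) was turned over for 30 min at room temperature by 150 nM human 12hLO, pH 7.0 Hepes buffer, after 15 min compound preincubation.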
In the case of `Cc1ccc2cccc(OCCCOc3ccccc3F)c2n1`, the Potency was inconclusive: 5.62 µM [inhibitor, full curve, poor fit]. With `CN(C)C(=O)CN1C(=O)CO[C@H](c2ccc(NS(=O)(=O)Cc3ccccc3)cc2)[C@H]1CO` the Potency was inconclusive: 44.7 µM [inhibitor, partial curve]. In the case of `COc1ccc(Nc2oc(COc3ccc(OC)cc3)nc2C#N)cc1`, the Potency was inconclusive: 79.4 µM [inhibitor, partial curve, poor fit] and inconclusive: 6.31 µM [inhibitor, full curve, poor fit]. With `Cc1cccc(CSCc2nnc(N)s2)c1` the “activity change, negative = inhibition” value was inactive: 208%. In the case of `CN(c1ccccc1)S(=O)(=O)c1cc(C(=O)OCC(=O)c2c(N)n(C)c(=O)n(C)c2=O)ccc1Cl`, the “activity change, negative = inhibition” value was inactive: -11.6%. With `COc1cc(CNCc2ccco2)cc(OC)c1O` the “activity change, negative = inhibition” value was inactive: 9.19%. `CCCCN(C)CCCNC(=O)c1cc(-c2cccs2)nc2ccccc12` was tested, and the Potency was inconclusive: 3.55 µM [inhibitor, full curve, poor fit]. With `CC(Sc1nnc(N)s1)C(=O)c1c(N)n(C)c(=O)n(C)c1=O` (configuration not stated) the “activity change, negative = inhibition” value was inactive: -25.4%. In the case of `CC(C)(C)c1cc(C(=O)O)n(Cc2ccc(Cl)cc2Cl)n1`, the Potency was inconclusive: 89.1 µM [inhibitor, single point]. `COc1ccc(CCNCc2ccc(-c3ccccc3)cc2)cc1OC` was tested, and the Potency was inconclusive: 50.1 µM [inhibitor, partial curve, poor fit]. `Cc1ccccc1-n1ccnc1SCC(=O)NCC1CCCO1` (configuration not stated) was tested, and the “activity change, negative = inhibition” value was inactive: -7.49%. With `COc1cccc(CN2C(=O)N(c3cccc(OC)c3)S(=O)(=O)c3ccccc32)c1` the “activity change, negative = inhibition” value was inactive: -66.5%. For `CCOC(=O)CNC(=O)Cn1cnc2c(nnn2-c2ccc(OC)cc2)c1=O`, the Potency was inconclusive: 25.1 µM [inhibitor, partial curve, poor fit]. `O=C(COc1ccc(Br)cc1)Nc1nc(-c2ccc(Br)o2)ns1` was tested, and the Potency was inconclusive: 31.6 µM [inhibitor, partial curve, poor fit]. In the case of `c1ccc(CNc2nc(-c3ccccn3)nc3ccccc23)cc1`, the “activity change, negative = inhibition” value was inactive: 0%. With `CCOP(=O)(OCC)c1nc(-c2ccc(C)cc2)oc1N(C)C` the Potency was inconclusive: 14.1 µM [inhibitor, partial curve, poor fit]. With `Clc1cccc(Cl)c1Cn1cnc2c(N3CCCCCC3)ncnc21` the “activity change, negative = inhibition” value was inactive: -23%. With `CCN(CC)CCCN=C1N[C@@H](c2cccc(F)c2)C(C(=O)OC)=C(C)N1Cc1ccccc1` the Potency was inconclusive: 50.1 µM [inhibitor, partial curve, poor fit]. In the case of `CC(=O)C1=C(O)C(=O)N(Cc2ccco2)C1c1ccccc1` (configuration not stated), the Potency was inconclusive: 50.1 µM [inhibitor, partial curve, poor fit]. With `Cn1c(N)c(C(=O)CSc2nn(-c3ccccc3)c(=S)s2)c(=O)n(C)c1=O` the “activity change, negative = inhibition” value was inactive: 8.15%. For `O=S(=O)(NCCc1csc2nc(-c3ccccc3)nn12)c1cc(F)ccc1F`, the Potency was inconclusive: 44.7 µM [inhibitor, partial curve, poor fit]. In the case of `Cc1ccc(C)c(NC(=O)Nc2ccc(-c3cn4cccnc4n3)cc2)c1`, the Potency was inconclusive: 70.8 µM [inhibitor, single point]. For `COc1ccc(NC(=O)CC(C)C)c2cccnc12`, the “activity change, negative = inhibition” value was inactive: 20.4%. With `O=S1(=O)c2ccccc2C(O)C(Cc2ccncc2)N1CCO` (configuration not stated) the “activity change, negative = inhibition” value was inactive: 10.4%. `COc1ccc(N2CCN(C(=O)/C=C/c3ccco3)CC2)cc1` was tested, and the “activity change, negative = inhibition” value was inactive: -19.3%. For `Nc1nc(SCC(=O)Nc2ccc(Br)cc2F)n[nH]1`, the “activity change, negative = inhibition” value was inactive: 154%. With `C/C(Cl)=C/CN1C(=O)C2C3C=CC(C3)C2C1=O` (configuration not stated) the Potency was inconclusive: 100 µM [inhibitor, partial curve, poor fit]. With `CCCCN(C(=O)C(C)Oc1ccc(Cl)cc1)c1c(N)n(CCCC)c(=O)[nH]c1=O` (configuration not stated) the Potency was inconclusive: 141 µM [inhibitor, partial curve, poor fit]. With `O=C(NCC(c1cccs1)N1CCOCC1)C1CCN(S(=O)(=O)c2cccc(C(F)(F)F)c2)CC1` (configuration not stated) the Potency was inconclusive: 89.1 µM [inhibitor, single point]. With `COc1ccc(-c2[nH]c(-c3ccc(Cl)cc3)nc2SCC(=O)NCC2CCCO2)cc1` (configuration not stated) the Potency was inconclusive: 112 µM [inhibitor, single point]. In the case of `O=C(Nc1nc(-c2cccc3ccccc23)cs1)c1cccs1`, the Potency was inconclusive: 1.41 µM [inhibitor, single point]. In the case of `CCOc1cc2c(C#N)c(N(CC)CC)nc(N)c2c(N)n1`, the “activity change, negative = inhibition” value was inactive: 3.6%. With `CCc1ccccc1NS(=O)(=O)c1ccc2[nH]cc(C(=O)N(CC)Cc3ccccc3)c(=O)c2c1` the Potency was inconclusive: 50.1 µM [inhibitor, partial curve, poor fit]. In the case of `O=C1OC=NC1=Cc1ccccc1`, the Potency was inconclusive: 7.08 µM [inhibitor, partial curve, poor fit]. `CSc1ccccc1C(=O)Nc1ccc(F)cc1F` was tested, and the “activity change, negative = inhibition” value was inactive: -13%. `Cc1oc(-c2cccc(Cl)c2)nc1CN1CCCC(C(=O)NCCCN2CCOCC2)C1` (configuration not stated) was tested, and the “activity change, negative = inhibition” value was inactive: -16.3%. In the case of `C/C(=N\NS(=O)(=O)c1ccc(Cl)c([N+](=O)[O-])c1)c1cc2ccccc2o1`, the Potency was inconclusive: 50.1 µM [inhibitor, partial curve, poor fit]. For `C=CCc1ccc(OCCCNCc2ccccc2)c(OC)c1`, the Potency was inconclusive: 1.41 µM [inhibitor, full curve, poor fit]. With `COc1ccc(CNC(=O)c2ccc3ccccc3c2)cc1` the Potency was inconclusive: 20 µM [inhibitor, partial curve, poor fit]. For `COC(=O)c1ccc(OC(=O)c2ccccc2OCc2ccc(Cl)cc2)cc1`, the “activity change, negative = inhibition” value was inactive: -19%. For `CC(=O)N1CCCC(c2nn(C)c(=O)n2C(C)C)C1` (configuration not stated), the “activity change, negative = inhibition” value was inactive: -2.66%. In the case of `Cc1ccc(CNC(=O)CCNS(=O)(=O)c2ccc(Br)s2)cc1`, the Potency was inconclusive: 25.1 µM [inhibitor, full curve]. For `COc1ccc(-n2c(=S)[nH]c(=O)c3cccnc32)cc1`, the Potency was inconclusive: 35.5 µM [inhibitor, full curve, poor fit]. In the case of `CCCCNC(=S)N/N=C1\CC2CC=CC12` (configuration not stated), the Potency was inconclusive: 39.8 µM [inhibitor, partial curve, poor fit]. For `COC(=O)[C@@]12CCCCN1[C@H](c1ccc(-c3ccccc3)cc1)[C@H]1C(=O)N(C)C(=O)[C@H]12`, the “activity change, negative = inhibition” value was inactive: -5.57%. With `COc1ccc(OC)c(C2CC(=O)Nc3c2c(=O)[nH]c2ncnn32)c1` (configuration not stated) the Potency was inconclusive: 10 µM [inhibitor, full curve, poor fit]. `CC(C)C(=O)NC(=S)Nc1ccc(S(=O)(=O)NC2CCCCC2)cc1` was tested, and the Potency was inconclusive: 56.2 µM [inhibitor, partial curve, poor fit]. For `COC(=O)C(C(C)C)N(Cc1cc(OC)cc(OC)c1)S(=O)(=O)CCl` (configuration not stated), the “activity change, negative = inhibition” value was inactive: -14.9%. With `O=C(c1n[nH]c2ccccc12)N1CCC(OCCOc2cccnc2)CC1` the “activity change, negative = inhibition” value was inactive: -0.952%. `CCOc1ccc(NC(=O)Cn2c(=O)n(CCCCCC(=O)NCc3ccccc3)c(=O)c3sccc32)cc1` was tested, and the Potency was inconclusive: 89.1 µM [inhibitor, partial curve, poor fit]. With `O=C(Nc1ccccc1)C1=NO[C@@H]2CN(Cc3ccc4[nH]ccc4c3)C[C@H]12` the Potency was inconclusive: 35.5 µM [inhibitor, full curve, poor fit]. In the case of `O=C(O)c1sc2cccc(Cl)c2c1Cl`, the Potency was inconclusive: 112 µM [inhibitor, single point]. In the case of `O=C(O)CSC1=NC(=Nc2ccc(Cl)cc2)C2(CCCCC2)N1c1cccc(C(=O)O)c1`, the Potency was inconclusive: 50.1 µM [inhibitor, partial curve, poor fit]. `O=C(O)CCCCCNC(=O)C(=O)C1C(=O)Nc2ccccc21` (configuration not stated) was tested, and the “activity change, negative = inhibition” value was inactive: -6.56%. For `COc1ccc(CCn2c(-c3cc([N+](=O)[O-])cc([N+](=O)[O-])c3)nc3nc4ccccc4nc32)cc1`, the Potency was inconclusive: 17.8 µM [inhibitor, full curve, poor fit]. For `CCOc1ccc(C(=O)NNC2CC(=O)N(Cc3ccc(Cl)cc3)C2=O)cc1OC` (configuration not stated), the Potency was inconclusive: 50.1 µM [inhibitor, partial curve, poor fit]. `CC1=C(C(=O)Nc2ccccc2)C(c2ccc(Br)cc2)NC(=S)N1` (configuration not stated) was tested, and the Potency was inconclusive: 44.7 µM [inhibitor, partial curve, poor fit]. With `COc1ccc(S(=O)(=O)Nc2c(C)nc3nc[nH]n3c2=O)cc1` the Potency was inconclusive: 126 µM [inhibitor, single point]. `Cc1cccc(NC(=O)c2nc[nH]c2C(=O)NCCCCCNC(=O)OC(C)(C)C)c1` was tested, and the “activity change, negative = inhibition” value was inactive: 1.81%. For `CCOC(=O)C1CCN(Cc2ccc(O)c3ncccc23)CC1`, the Potency was inconclusive: 89.1 µM [inhibitor, single point]. In the case of `CCN=c1scc(C)n1/N=C/c1ccc(O)c(O)c1O`, the Potency was inconclusive: 28.2 µM [inhibitor, partial curve]. With `CCC(c1nnnn1CC1CCCO1)N(CCCO)Cc1cc2cccc(C)c2[nH]c1=O` (configuration not stated) the “activity change, negative = inhibition” value was inactive: -9.7%. `COC(=O)[C@@H](Cc1c[nH]c2ccccc12)NCc1ccc(B(O)O)cc1` was tested, and the Potency was inconclusive: 44.7 µM [inhibitor, partial curve, poor fit]. With `CC(C)C[C@@H](CN1CCCC1CN1C(=S)NC[C@@H]1Cc1ccc(O)cc1)N1C[C@H](Cc2ccc(O)cc2)N(CCc2ccccc2)C1=S` (some centres not stated) the Potency was inconclusive: 44.7 µM [inhibitor, partial curve, poor fit]. In the case of `NNC(=O)c1ccc2c(c1)S(=O)(=O)NNC2=O`, the Potency was inconclusive: 0.562 µM [inhibitor, full curve, poor fit]. In the case of `CC(/C=C/c1ccccc1)=N\NC(=O)Cn1cncn1`, the Potency was inconclusive: 112 µM [inhibitor, single point]. For `O=C1COc2ccc(C(=O)CSc3nnc(-c4cccc(Cl)c4)o3)cc2N1`, the “activity change, negative = inhibition” value was inactive: -6.06%.
% is scaled to controls: 0 for no effect and ±100 for the full control effect; potency is read from the fitted curve at half-maximal effect.
